Assay results as given in the supplement of paper PMC8166895.
Where a name gives a salt, the structure may show the parent alone. Some of the results follow. Most values lie at the level of the controls, where differences are scatter.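 Differential scanning fluorimetry gave melting temperatures in a one-replicate pilot screen of a library of approved drugs plus clinical or known-target compounds. Hits increasing melting point at least 2 °C were the strongest stabilizers, while negative shifts signify destabilization.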 Where a SMILES comes first, the peptide text is derived from it. Bridges are numbered along the chain shown (N, C = ends). [ ]: non-standard residue; d: D form. The star is where a group is joined. Ileψ(thiazoline)Cys = CC[C@H](C)[C@H](N)C1=N[C@H](C(=O)*)CS1; dOrn = NCCC[C@@H](N)C(=O)O

System: SARS-CoV-2 main protease (Mpro, nsp5)
Experiment: thermal shift ΔTm of Mpro relative to plate average Tm; higher = stronger thermal stabilization of Mpro (binding)
Details: 10 µM; protein concentration 1 µM

Structure (SMILES) | thermal shift ΔTm of Mpro [°C]
O=c1cc(N2CCOCC2)nc2c3ccccc3ccn12 [Compound 401] | -0.0204
CC[C@@H](C(N)=O)N1CCCC1=O [Levetiracetam] | 0.505
CC(=O)NS(=O)(=O)c1ccc(NC(=O)c2ccccc2C(=O)O)cc1 [Phthalylsulfacetamide] | 0.191
N#Cc1cccc(-c2c[nH]c3ncnc(N4CCOCC4)c23)c1 | -0.0289
CC[C@H](C)[C@H](N)C1=N[C@H](C(=O)N[C@@H](CC(C)C)C(=O)N[C@H](CCC(=O)O)C(=O)N[C@H](C(=O)N[C@H]2CCCCNC(=O)[C@H](CC(N)=O)NC(=O)[C@@H](CC(=O)O)NC(=O)[C@H](Cc3cnc[nH]3)NC(=O)[C@@H](Cc3ccccc3)NC(=O)[C@H]([C@@H](C)CC)NC(=O)[C@@H](CCCN)NC2=O)[C@@H](C)CC)CS1 [Bacitracin] ({Ileψ(thiazoline)Cys}-L[dE]IK[dOrn]I[dF]H[dD]N; lactam 4-C) | 0.0585
O=C(CCc1ccc(O)cc1)c1c(O)cc(O)cc1O [Phloretin] | 0.949
Cc1cn(CCN2CCN(c3ccccc3-c3cc(C#N)cc(C(=O)NCCCN4CCCC4)c3)CC2)c2ccccc12 | 0.256
CN1CCN(CCCN2c3ccccc3Sc3ccc(C(F)(F)F)cc32)CC1 [Trifluoperazine 2HCl] | -0.126
CNCc1ccc(-c2cc(-c3nc(-c4ccc(S(=O)(=O)C(C)C)cc4)cnc3N)on2)cc1 | 0.143
COc1ccc(OC)c(C(O)CNC(=O)CN)c1 (configuration not stated) [Midodrine hydrochloride] | 0.421
CC(S)C(=O)NCC(=O)O (configuration not stated) [Tiopronin] | 0.0568
O=C(O)CCCc1ccc(N(CCCl)CCCl)cc1 [Chloroambucil] | -0.0638
NCC(CS(=O)(=O)O)c1ccc(Cl)cc1 (configuration not stated) [Saclofen] | 0.0491
C=CC(=O)Nc1ccc(CN(C(=O)Nc2c(Cl)c(OC)cc(OC)c2Cl)c2cc(Nc3ccc(N4CCN(C)CC4)cc3)ncn2)cc1 | 0.355
CNC[C@H](O)c1ccc(O)c(O)c1 [Epinephrine Bitartrate] | 0.00903
CNC[C@H](O)c1ccc(O)c(O)c1 [Epinephrine HCl] | 0.0253
O=C(NCc1ccccc1)c1csc(Nc2ccncn2)n1 [Thiazovivin] | 0.278
C=CC(=O)Nc1cc2c(Nc3ccc(F)c(Cl)c3)ncnc2cc1OCCCN1CCOCC1 [Canertinib] | 0.196
O=C(Nc1ccccc1C(=O)NC1CCCCNC1=O)c1cc2ccccc2s1 (configuration not stated) | -0.205
O=C1N[C@](c2ccc(N3CCOCC3)cc2)(c2ccsc2)CC(O)=C1Sc1ccccc1Cl | 0.0877
CCc1cc(Nc2nccc(-c3c(-c4ccc(OC)c(C(=O)Nc5c(F)cccc5F)c4)nc4ccccn34)n2)c(OC)cc1N1CCC(N2CCN(S(C)(=O)=O)CC2)CC1 | 0.163
CC(C)OC(=O)N1CCC(Oc2ncnc3c2cnn3-c2ccc(S(C)(=O)=O)cc2F)CC1 | 0.323
Nc1ccn([C@H]2CC[C@@H](CO)O2)c(=O)n1 [Zalcitabine] | -0.176
Cc1ccc(C2Nc3ccccc3-n3c(-c4ccccc4)c4c(=O)n(C)c(=O)n(C)c4c32)o1 (configuration not stated) | -0.0344
COc1cccc(-c2cc(=O)c3ccccc3o2)c1N | 0.117
C=CCNC(N)=S [Allylthiourea] | 0.153

Structure (SMILES) | thermal shift ΔTm of Mpro [°C]
CNC(=O)c1cccc(-c2ccc3c(N4CCOC[C@@H]4C)nc(N4CCOC[C@@H]4C)nc3n2)c1 | 0.0138
CN(C)CCOC(C)(c1ccccc1)c1ccccn1 (configuration not stated) [Doxylamine Succinate] | -0.171
c1cnoc1 [Isoxazole] | -0.0697
Oc1c(I)cc(Cl)c2cccnc12 [Clioquinol] | 0.0227
C[C@@H](O)[C@H]1C(=O)N2C(C(=O)O)=C(S[C@@H]3CN[C@H](CNS(N)(=O)=O)C3)[C@H](C)[C@H]12 [Doripenem Hydrate] | 0.595
COc1cc2nccc(Oc3ccc(NC(=O)Nc4cc(C)on4)c(Cl)c3)c2cc1OC [Tivozanib (AV-951)] | -0.143
CC(C)(C#N)c1cc(Cn2cncn2)cc(C(C)(C)C#N)c1 [Anastrozole] | 0.284
CC[C@]1(O)C[C@H]2CN(CCc3c([nH]c4ccccc34)[C@@](C(=O)OC)(c3cc4c(cc3OC)N(C=O)[C@H]3[C@@](O)(C(=O)OC)[C@H](OC(C)=O)[C@]5(CC)C=CCN6CC[C@]43[C@@H]65)C2)C1 [Vincristine] | 0.0537
Nc1nc(CC(=O)Nc2ccc(CCNC[C@H](O)c3ccccc3)cc2)cs1 [Mirabegron] | -0.0684
O=C1C[C@@H](c2ccc(O)cc2)Oc2cc(O[C@@H]3O[C@H](CO)[C@@H](O)[C@H](O)[C@H]3O)ccc21 [Neoliquiritin] | -0.113
COc1ccccc1OCC(O)CO (configuration not stated) [Guaifenesin] | 0.043
Cc1cc(=O)[nH]c(=S)[nH]1 [Methylthiouracil] | 0.066
CC(=O)[C@H]1CC[C@H]2[C@@H]3C=CC4=CC(=O)CC[C@@]4(C)[C@@H]3CC[C@]12C [Dydrogesterone] | -0.201
CN1[C@@H]2CC[C@H]1C[C@@H](OC(=O)c1c[nH]c3ccccc13)C2 [Tropisetron] | 0.0525
COc1cc(N)c(Cl)cc1C(=O)NC1CCN(Cc2ccc(F)cc2)CC1 [Fluoroclebopride] | 0.0139
O=C(CCCCCCCC(=O)NCCO)NCCO [Adelmidrol] | 0.00326
C1=Cc2ccccc2C(=C2CCN(CCCCc3nn[nH]n3)CC2)c2ccccc21 | -0.0351
CN(C)Cc1c[nH]c2ccccc12 [Gramine] | -0.139
O=c1[nH]c2cc(Cl)ccc2s1 [Chlorobenzothiazolinone] | 0.131
COCCNCc1ccc(-c2cc3nccc(Oc4ccc(NC(=O)C5(C(=O)Nc6ccc(F)cc6)CC5)cc4F)c3s2)nc1 [Sitravatinib] | 0.436
Cc1cccc(C)c1OCC(C)N (configuration not stated) [Mexiletine HCl] | -0.0958
COc1ccc(-n2nc(C(F)(F)F)cc2-c2ccc(Cl)cc2)cc1 | -0.16
COc1ccc(/C=C/C(=O)Nc2ccccc2C(=O)O)cc1OC [Trans-Tranilast] | 0.0559
COc1ccc(/C=C/C(=O)Nc2ccccc2C(=O)O)cc1OC [Tranilast] | 0.246
CCN(CC)CCNC(=O)c1c(C)[nH]c(/C=C2\C(=O)Nc3ccc(F)cc32)c1C [Sunitinib] | -0.167
CCN(CC)CCNC(=O)c1c(C)[nH]c(/C=C2\C(=O)Nc3ccc(F)cc32)c1C [Sunitinib Malate] | 0.0904

Reprinted at random: two entries already listed
Structure (SMILES) | thermal shift ΔTm of Mpro [°C]
Cc1cccc(C)c1OCC(C)N (configuration not stated) [Mexiletine HCl] | -0.0958
CCN(CC)CCNC(=O)c1c(C)[nH]c(/C=C2\C(=O)Nc3ccc(F)cc32)c1C [Sunitinib] | -0.167
